Drawing on doi:10.1101/2021.05.10.443488, this text covers binding for two molecules.

The target of the assay is RNA polymerase (RNAP) of Streptomyces venezuelae (Streptomyces venezuelae (endogenous)). The experiment in a line: co-purification with native RNAP.

No constants are given. Whether binding was seen depends on the method and setting. In cells and extracts the contact can be indirect. Binding can be weak; no strength is given. Where a sequence is shown, tags or fusion partners need not be part of it.

B1: Rox (rifamycin monooxygenase of S. venezuelae) (enzyme, UniProt F2R776 1-476)
chain: MFDVIVVGGGPTGLMLAGELRLHGVRVLVLEKETEPTRQSRAQGLHVRSIEVMAQRGLLERFLERGHTVAVGGFFAGLATSWPERLDTAHSYVLAVPQVITEQLLAEHATALGAEIRRGRALVGLRQDEDGVTVDLADGEQLRARYVVGCDGGRSTVRKLLGVAFPGEPSRVETLLGEMEMTASQEELTSVMTEVRKTQQRFGAMPLGDGVFRVVVPAEGVAEDRTASPTLDEFKQQLRAHAGTDFGVHSPRWLSRFGDATRQAERYRVDRVFLAGDAAHIHPPTGGQGLNLGIQDAFNLGWKLAAEVDGWAPEGLLDTYHAERHPVATEVLDNTRAQIQLMSTEPGPQAVRRLMAELVEFENVNRYLIEKITAISVRYDVGEGHELLGRRMRDLALKHGRLYERMHEGRGLLLDQTGRLSVAGWEDRVDHVVEVSEELDVPAVLLRPDGHVVWAGEDQQELLTRMPAWFGAATAG
Consider B1, for which the binding entry is “no binding”.

B2: HelRSv (rifamycin associated helicase-like protein of Streptomyces venezuelae) (protein, UniProt F2RC64 1-722)
chain: MRVLSSVDQLDGTSAFDLPDRLSAKTDPALIAADERHFSAIAKSLAETITELSDRLDATRKAPGGVGREAMDRDAEIHRLTGRLRTLRRFGLDLCLGRIVTADDAEPVYVGRLGLTDSTGRRLLVDWRSPAAEPFFAATHADPMGLTSRRRYRWTGGRVSDYWDEVFTADGLEEHAALDDQSAFIASLGSSRSPQMRDVLATIQADQDAIIRAGSRGTLVVDGGPGTGKTVVALHRSAHLLYADPRLGHRRGGVLFVGPHQPYLAYVADVLPSLGEEGVRTCTVRDLVAEGAGAAVERDAEVARLKSSADMVRAIEAAVRFYEEPPTQRMTVSTDWADVRLTADDWAEAFDAPEAGTPHNEAREQIWEELGSILLGKLGDEVPEEEFRRALRQDEELAGALHGAWPLLEAADLVGDLWSVPAYLRKCAPWLDREDVAKLQRADAQAWTVSDLPLLDAARQRLGDPEAARRRRRQQATVAAERARMADVIADVLAADDDGEGAVTMLRGQDLKDTLVDEAALTGVEPDLLAGPFAHIVVDEAQELSDAEWQMLLLRCPSRSFTIVGDRAQARHGFTESWEERLARVGLDRITVASLSINYRTPEEVMAEAEPAIRAALPDANVPTSVRSSGVPVLRGPVEELDTIVDEWLAANADGTACVIGAPRFRPGPRVRSLTPSLSKGLEFDLVVLVDPEDFGGGIEGAVDRYVAMTRATKQLVILTSS
For the molecule B2, the binding result is given as “binds”.
